Experimental data published in patent publication US11560582B2, “Fusion moieties and microbial hosts for protein production” (priority 2018, dated 2023).
At least one structure is not confirmed: it was looked up by name or label, or the drawing left a doubt.

System: A. wodanis strains
Experiment: Antibiotic resistance test, summary for all strains
Assay type: cell-based, Aliivibrio wodanis
Conditions: the twelve strains used in this study
Description: Next, we tested for resistance to antibiotics, four of which are commonly used in biotechnological applications, namely carbenicillin, kanamycin, tetracycline and chloramphenicol.
Antibiotic susceptibility testing was done by streaking A. wodanis cells onto LB plates supplemented with 2.5% NaCl and one of the following antibiotics: Chloramphenicol (2 μg/mL, Tetracycline (10 μg/mL), Carbenicillin (100 or 200 μg/mL) or Kanamycin (50 or 100 μg/mL). A. wodanis was regarded as susceptible (score=0) if no growth was detected, as intermediate susceptible (score=0.5) if poor growth was detected, or as resistant (score=1) if good growth was detected. The tested concentrations of antibiotics were similar to the recommended working concentrations for E. coli, except Chloramphenicol that was tested at 2 μg/mL (instead of 25 μg/mL). If the test scored as “resistant”, then the test was redone using 2× of the recommended concentration. All A. wodanis strains were streaked onto same agar plate and grown at 12° C. for 2 days.

CN(C)[C@@H]1C(O)=C(C(N)=O)C(=O)[C@@]2(O)C(O)=C3C(=O)c4c(O)cccc4[C@@](C)(O)[C@H]3C[C@@H]12 [TET, Tetracycline]
sensitivity / resistance to antibiotics: sensitive
